Laboratory results: PubChem BioAssay AID330 (DTP/NCI, 2004)
The list is a part of this screen's results and no random one: it gathers tests that were run many times, whatever their T/C, doses with no T/C, and many T/C values between a quarter and a half above the control. Other doses and runs of a compound stand elsewhere. T/C: endpoint of the treated group in % of that of the vehicle group. Some entries give survivors of the animals treated and no T/C: the source files T/C as zero there, which appears to mark a toxic dose or a test without result, not a measured value. Some survivor counts are full or nearly so, which does not show that the dose was tolerated: the source hardly ever lists a survival T/C far under the control, and the zero likely stands for such cases as well. Survivors were counted at the toxicity check, usually on the fifth day, unless a day is given; later deaths do not show. Schedule codes are those of the source, read here as Q, the interval in days (D) or hours (H), X, the number of doses. Some molecules as drawn cover several salts, stereoisomers or complexes of the source; a dose is that of the sample tested. Some doses were run more than once; the results are listed from low to high. Additions like (4×) say how often a value occurs here. For survival time, this PubChem deposit counts one and a half times the control or more as active, and values a quarter to a half above the control carry no call in these data; other NCI protocols may use other cut-offs. Some T/C values carry the count of animals alive at the toxicity check (mostly the fifth day); without a count, all were alive then.

System: P388 leukemia ip, CD2F1 mice, survival T/C
Assay: NCI In Vivo Anticancer Drug Screen. Data for tumor model P388 Leukemia (intraperitoneal) in CD2F1 (CDF1) mice
Conditions: T/C endpoint: median survival time, higher T/C = longer survival
[1] = dose: 5.0 mg/kg/injection, schedule: Q01DX005 (iv), vehicle: clinical formulation

SMILES: O=C1NC2(CCCCC2)C(=O)N1CCN(CCCl)CCCl
- T/C (dose: 0.75 mg/kg/injection, schedule: Q01DX009 (ip), vehicle: Klucel (hydroxypropylcellulose) (HPC)): 132, 134, 145 % of control
- T/C (dose: 0.78 mg/kg/injection, schedule: Q01DX009 (ip), vehicle: saline): 130 and 132 % of control
- T/C (dose: 1.25 mg/kg/injection, schedule: Q01DX005 (ip), vehicle: other): 125 % of control
- T/C (dose: 1.25 mg/kg/injection, schedule: Q01DX005 (iv), vehicle: clinical formulation): 128 % of control
- T/C (dose: 1.25 mg/kg/injection, schedule: Q01DX009 (ip), vehicle: clinical formulation): 142 % of control
- T/C (dose: 1.25 mg/kg/injection, schedule: Q01DX009 (ip), vehicle: other): 136 % of control
- T/C (dose: 1.5 mg/kg/injection, schedule: Q01DX009 (ip), vehicle: Klucel (hydroxypropylcellulose) (HPC)): 142 and 143 % of control
- T/C (dose: 1.5 mg/kg/injection, schedule: Q01DX009 (ip), vehicle: saline with Tween-80): 127 % of control
- T/C (dose: 1.5 mg/kg/injection, schedule: Q01DX009 (ip), vehicle: saline, evaluated on day 30): 128 [5 of 6 alive], 131, 134, 151 % of control [5 of 6 alive]
- T/C (dose: 1.5 mg/kg/injection, schedule: Q01DX009 (ip), vehicle: saline, evaluated on day 60): 113 % of control
- T/C (dose: 1.56 mg/kg/injection, schedule: Q01DX009 (ip), vehicle: saline): 141 and 147 % of control [5 of 6 alive]
- T/C (dose: 2.5 mg/kg/injection, schedule: Q01DX005 (ip), vehicle: other): 133 % of control
- T/C (dose: 2.5 mg/kg/injection, schedule: Q01DX005 (iv), vehicle: clinical formulation): 130 % of control
- T/C (dose: 2.5 mg/kg/injection, schedule: Q01DX009 (ip), vehicle: saline with Tween-80): 146 % of control
- T/C (dose: 2.5 mg/kg/injection, schedule: Q01DX009 (ip), vehicle: saline): 148 % of control
- T/C (dose: 2.6 mg/kg/injection, schedule: Q01DX009 (ip), vehicle: Klucel (hydroxypropylcellulose) (HPC), evaluated on day 45): 145, 169, 171 % of control
- T/C (dose: 2.6 mg/kg/injection, schedule: Q01DX009 (ip), vehicle: Klucel (hydroxypropylcellulose) (HPC), evaluated on day 60): 167 % of control
- T/C (dose: 3.0 mg/kg/injection, schedule: Q01DX005 (ip), vehicle: saline): 127 and 135 % of control
- T/C (dose: 3.0 mg/kg/injection, schedule: Q01DX005 (ip), vehicle: suspension in saline): 138 % of control
- T/C (dose: 3.0 mg/kg/injection, schedule: Q01DX009 (ip), vehicle: other): 132 % of control
- T/C (dose: 3.0 mg/kg/injection, schedule: Q01DX009 (ip), vehicle: saline, evaluated on day 30): 140, 146, 160, 177 % of control
- T/C (dose: 3.0 mg/kg/injection, schedule: Q01DX009 (ip), vehicle: saline, evaluated on day 60): 128 % of control
- T/C (dose: 4.0 mg/kg/injection, schedule: Q01DX009 (ip), vehicle: Klucel (hydroxypropylcellulose) (HPC), evaluated on day 30): 181 % of control [9 of 10 alive]
- T/C (dose: 4.0 mg/kg/injection, schedule: Q01DX009 (ip), vehicle: Klucel (hydroxypropylcellulose) (HPC), evaluated on day 45): 177, 182, 188, 195, 200, 202, 228 % of control
- T/C (dose: 4.0 mg/kg/injection, schedule: Q01DX009 (ip), vehicle: Klucel (hydroxypropylcellulose) (HPC), evaluated on day 60): 184, 186 (2×), 196, 201, 212 % of control
- T/C (dose: 5.0 mg/kg/injection, schedule: Q01DX001 (ip), vehicle: other): 128 % of control
- T/C (dose: 5.0 mg/kg/injection, schedule: Q01DX005 (ip), vehicle: other): 143 % of control
- T/C [1]: 146 % of control
- survivor count [1]: 6 of 8
- T/C (dose: 5.0 mg/kg/injection, schedule: Q01DX009 (ip), vehicle: clinical formulation): 133 % of control
- survivor count (dose: 5.0 mg/kg/injection, schedule: Q01DX009 (ip), vehicle: saline with Tween-80): 5 of 8
- T/C (dose: 6.0 mg/kg/injection, schedule: Q01DX005 (ip), vehicle: saline): 136 and 144 % of control
- T/C (dose: 6.0 mg/kg/injection, schedule: Q01DX009 (ip), vehicle: Klucel (hydroxypropylcellulose) (HPC), evaluated on day 30): 195, 196, 200, 201 % of control
- T/C (dose: 6.0 mg/kg/injection, schedule: Q01DX009 (ip), vehicle: Klucel (hydroxypropylcellulose) (HPC), evaluated on day 45): 192, 198, 201, 214, 216, 230, 232 % of control
- T/C (dose: 6.0 mg/kg/injection, schedule: Q01DX009 (ip), vehicle: Klucel (hydroxypropylcellulose) (HPC), evaluated on day 60): 202, 208, 209 [9 of 10 alive], 220, 226, 238 % of control
- T/C (dose: 6.0 mg/kg/injection, schedule: Q01DX009 (ip), vehicle: saline, evaluated on day 30): 164, 166, 169, 223 % of control
- T/C (dose: 6.0 mg/kg/injection, schedule: Q01DX009 (ip), vehicle: saline, evaluated on day 45): 240 % of control
- T/C (dose: 6.0 mg/kg/injection, schedule: Q01DX009 (ip), vehicle: saline, evaluated on day 60): 136 % of control
- T/C (dose: 8.0 mg/kg/injection, schedule: Q01DX001 (ip), vehicle: saline): 127 % of control
- T/C (dose: 9.0 mg/kg/injection, schedule: Q01DX009 (ip), vehicle: Klucel (hydroxypropylcellulose) (HPC), evaluated on day 30): 227 % of control
- T/C (dose: 9.0 mg/kg/injection, schedule: Q01DX009 (ip), vehicle: Klucel (hydroxypropylcellulose) (HPC), evaluated on day 45): 200, 231, 242, 244, 245 [7 of 8 alive], 248, 250, 273 % of control
- T/C (dose: 9.0 mg/kg/injection, schedule: Q01DX009 (ip), vehicle: Klucel (hydroxypropylcellulose) (HPC), evaluated on day 60): 227, 228, 239, 248, 283, 303 % of control
- T/C (dose: 10.0 mg/kg/injection, schedule: Q01DX001 (ip), vehicle: other): 133 % of control
- survivor count (dose: 10.0 mg/kg/injection, schedule: Q01DX005 (ip), vehicle: other): 6 of 10
- survivor count (dose: 10.0 mg/kg/injection, schedule: Q01DX005 (iv), vehicle: clinical formulation): 7 of 8
- T/C (dose: 10.0 mg/kg/injection, schedule: Q01DX005 (iv), vehicle: other): 133 % of control
- T/C (dose: 12.0 mg/kg/injection, schedule: Q01DX005 (iv), vehicle: suspension in saline): 126 % of control
- T/C (dose: 12.0 mg/kg/injection, schedule: Q01DX009 (ip), vehicle: Klucel (hydroxypropylcellulose) (HPC)): 129 % of control
- T/C (dose: 12.0 mg/kg/injection, schedule: Q01DX009 (ip), vehicle: saline, evaluated on day 30): 117, 169, 184, 211 % of control
- T/C (dose: 12.0 mg/kg/injection, schedule: Q01DX009 (ip), vehicle: saline, evaluated on day 60): 151 % of control
- T/C (dose: 12.5 mg/kg/injection, schedule: Q01DX009 (ip), vehicle: saline): 127 and 137 % of control
- T/C (dose: 13.0 mg/kg/injection, schedule: Q01DX009 (ip), vehicle: Klucel (hydroxypropylcellulose) (HPC), evaluated on day 30): 240 % of control
- T/C (dose: 13.0 mg/kg/injection, schedule: Q01DX009 (ip), vehicle: Klucel (hydroxypropylcellulose) (HPC), evaluated on day 45): 98, 99 [9 of 10 alive], 169, 250, 267, 326 % of control
- T/C (dose: 13.0 mg/kg/injection, schedule: Q01DX009 (ip), vehicle: Klucel (hydroxypropylcellulose) (HPC), evaluated on day 60): 131, 132, 140, 158, 245 % of control
- T/C (dose: 16.0 mg/kg/injection, schedule: Q01DX001 (ip), vehicle: saline): 133 % of control
- T/C (dose: 16.0 mg/kg/injection, schedule: Q01DX001 (ip), vehicle: suspension in saline): 148 % of control [5 of 6 alive]
- survivor count (dose: 20.0 mg/kg/injection, schedule: Q01DX005 (iv), vehicle: clinical formulation): 4 of 8 (2×) and 6 of 8
- survivor count (dose: 20.0 mg/kg/injection, schedule: Q01DX009 (ip), vehicle: clinical formulation): 4 of 8 and 7 of 8 (2×)
- survivor count (dose: 20.0 mg/kg/injection, schedule: Q01DX009 (ip), vehicle: other): 5 of 10
- survivor count (dose: 20.0 mg/kg/injection, schedule: Q01DX009 (ip), vehicle: saline with Tween-80): 6 of 8 and 8 of 8
- T/C (dose: 20.0 mg/kg/injection, schedule: Q01DX009 (oral), vehicle: other): 125 % of control
- survivor count (dose: 24.0 mg/kg/injection, schedule: Q01DX009 (ip), vehicle: Klucel (hydroxypropylcellulose) (HPC)): 6 of 6
- survivor count (dose: 24.0 mg/kg/injection, schedule: Q01DX009 (ip), vehicle: saline with Tween-80): 4 of 6
- T/C (dose: 24.0 mg/kg/injection, schedule: Q01DX009 (ip), vehicle: saline, evaluated on day 30): 170, 228, 239 % of control
- T/C (dose: 24.0 mg/kg/injection, schedule: Q01DX009 (ip), vehicle: saline, evaluated on day 60): 173 % of control
- survivor count (dose: 24.0 mg/kg/injection, schedule: Q01DX009 (ip), vehicle: saline): 6 of 6
- survivor count (dose: 25.0 mg/kg/injection, schedule: Q01DX009 (ip), vehicle: Klucel (hydroxypropylcellulose) (HPC)): 6 of 8
- survivor count (dose: 25.0 mg/kg/injection, schedule: Q01DX009 (ip), vehicle: saline): 4 of 6 and 6 of 6
- T/C (dose: 25.0 mg/kg/injection, schedule: Q01DX009 (oral), vehicle: Klucel (hydroxypropylcellulose) (HPC)): 126 and 130 % of control
- T/C (dose: 32.0 mg/kg/injection, schedule: Q01DX001 (ip), vehicle: saline): 138 % of control
- T/C (dose: 32.0 mg/kg/injection, schedule: Q01DX001 (ip), vehicle: suspension in saline): 145 % of control [5 of 6 alive]
- survivor count (dose: 40.0 mg/kg/injection, schedule: Q01DX009 (ip), vehicle: clinical formulation): 1 of 8, 2 of 8, 3 of 8
- survivor count (dose: 40.0 mg/kg/injection, schedule: Q01DX009 (ip), vehicle: saline with Tween-80): 1 of 8 and 3 of 8
- survivor count (dose: 40.0 mg/kg/injection, schedule: Q01DX009 (ip), vehicle: saline): 3 of 8
- survivor count (dose: 50.0 mg/kg/injection, schedule: Q01DX001 (ip), vehicle: saline): 6 of 6
- T/C (dose: 50.0 mg/kg/injection, schedule: Q01DX009 (oral), vehicle: Klucel (hydroxypropylcellulose) (HPC)): 130 % of control
- survivor count (dose: 96.0 mg/kg/injection, schedule: Q01DX009 (oral), vehicle: Klucel (hydroxypropylcellulose) (HPC)): 6 of 6
- T/C (dose: 96.0 mg/kg/injection, schedule: Q01DX009 (oral), vehicle: saline): 145 % of control
- survivor count (dose: 100.0 mg/kg/injection, schedule: Q01DX001 (ip), vehicle: Klucel (hydroxypropylcellulose) (HPC)): 5 of 6
- survivor count (dose: 100.0 mg/kg/injection, schedule: Q01DX001 (ip), vehicle: saline): 6 of 6
